Data: paper PMC3784504
Results are given in words; binding and its absence hold for the method and conditions named. In cells and extracts the contact can be indirect. A yes stands for co-enrichment or nearness to the bait. Other partners may have been found.

Protein sequences, listed by entry. Tags and fused reporters are not part of them.
UniProt P23696: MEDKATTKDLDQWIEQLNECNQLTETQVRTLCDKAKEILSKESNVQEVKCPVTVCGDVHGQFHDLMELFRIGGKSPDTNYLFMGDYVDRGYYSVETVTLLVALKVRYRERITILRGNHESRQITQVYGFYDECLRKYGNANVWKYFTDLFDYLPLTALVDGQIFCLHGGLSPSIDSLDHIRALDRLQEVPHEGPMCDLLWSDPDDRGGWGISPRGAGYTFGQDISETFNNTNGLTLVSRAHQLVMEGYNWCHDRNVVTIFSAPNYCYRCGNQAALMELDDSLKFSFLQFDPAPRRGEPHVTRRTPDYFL

Key:
Assay in all cases: affinity purification with mass spectrometry; NAP1, SA, SMC1 or PP2A (catalytic subunit) immunopurified from 0-12 hour Drosophila embryo nuclear extract (NAP1 and SA also from S2 cells) with antibodies cross-linked to protein A sepharose; washes with HEMG, 600 mM KCl, 0.1% NP-40; SDS-PAGE, mass spectrometry
[1] = biological target: T1, cohesin subunit SMC1 (Drosophila (endogenous in embryos and S2 cells)) (UniProt Q9VCD8)
T1 sequence: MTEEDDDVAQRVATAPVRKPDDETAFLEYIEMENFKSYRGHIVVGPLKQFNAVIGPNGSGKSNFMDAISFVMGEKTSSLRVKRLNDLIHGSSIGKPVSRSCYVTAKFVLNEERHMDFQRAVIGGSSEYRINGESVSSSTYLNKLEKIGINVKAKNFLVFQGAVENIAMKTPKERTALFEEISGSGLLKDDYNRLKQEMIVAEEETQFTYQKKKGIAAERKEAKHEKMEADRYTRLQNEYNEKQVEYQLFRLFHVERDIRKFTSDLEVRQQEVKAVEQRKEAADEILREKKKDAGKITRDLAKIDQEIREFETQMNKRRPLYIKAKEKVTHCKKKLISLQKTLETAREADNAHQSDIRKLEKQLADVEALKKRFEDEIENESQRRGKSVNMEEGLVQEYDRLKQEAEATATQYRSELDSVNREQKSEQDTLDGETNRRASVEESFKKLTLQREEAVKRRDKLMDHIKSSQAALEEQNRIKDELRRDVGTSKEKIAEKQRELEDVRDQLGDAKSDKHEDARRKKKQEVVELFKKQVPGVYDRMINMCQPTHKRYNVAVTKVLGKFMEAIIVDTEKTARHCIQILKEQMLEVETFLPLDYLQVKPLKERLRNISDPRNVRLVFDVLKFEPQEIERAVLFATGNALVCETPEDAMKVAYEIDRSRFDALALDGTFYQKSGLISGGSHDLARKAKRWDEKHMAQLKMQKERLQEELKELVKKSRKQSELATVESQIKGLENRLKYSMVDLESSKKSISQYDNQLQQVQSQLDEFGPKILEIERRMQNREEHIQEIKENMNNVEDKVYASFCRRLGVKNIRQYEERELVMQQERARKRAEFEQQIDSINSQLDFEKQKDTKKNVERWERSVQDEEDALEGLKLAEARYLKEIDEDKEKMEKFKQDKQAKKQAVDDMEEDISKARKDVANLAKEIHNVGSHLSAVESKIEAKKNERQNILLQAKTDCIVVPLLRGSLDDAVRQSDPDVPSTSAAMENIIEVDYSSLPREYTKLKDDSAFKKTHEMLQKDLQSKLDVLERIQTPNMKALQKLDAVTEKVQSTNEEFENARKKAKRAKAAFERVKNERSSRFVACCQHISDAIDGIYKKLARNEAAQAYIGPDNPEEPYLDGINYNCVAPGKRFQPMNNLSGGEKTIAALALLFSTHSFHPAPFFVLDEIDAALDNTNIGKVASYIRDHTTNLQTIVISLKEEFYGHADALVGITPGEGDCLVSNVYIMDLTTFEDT

[2] = biological target: protein phosphatase 2A (PP2A) catalytic subunit (Drosophila (endogenous in embryos and S2 cells)) (UniProt P23696)
[3] = biological target: cohesin subunit stromalin (SA) (Drosophila (endogenous in embryos and S2 cells))

Measured: binding

B1: MAU2/SCC4 (protein, UniProt Q9VFC0 1-632)
chain: MSASTSTSTAASQDACYISLLGLAEYFRTSQPPNIKKCIQCLQALFTFMPPSKVEARTHLQMGQILMAYTKNIDLARQHLEKAWSISEPLPNFDVKFDTASLLAQLHLQTDRNSHQAKAMLRRAVELSQNNVYWHCKLLLQLAQIHASDREYSLASELLAVGAESADEASATYLKVLFLLSRAMILMIERKTNDVLALLNSAGQIIDNNIPNPHQKEYLKVFFLVLQVCYYLALGQVKTVKPSLKQLQMSIQTIMAPNWPSDEAIFGANQLEMFVWLPKEQLYVLVYLVTVSHSMMAGYMDKAQKYTEKALTQIEKLKQQEDKPILSVFKVILLEHIVMCRMVMGNRELAIREIAAARDVCMAAPQRSLLRRHSAQLHCLIGLYSMSTNLFEHAERQFVVCVSETSERDLKLFANLNLAIIYLRTKRDTDLKQILDAVSTENTHTYSSQALMGGFYYVQGLHAFHKNSFHEAKRFLRETLKMANAEDLNRLTSCSLVLLSHVFLSIGNSKESMNMVTPAMQLASKIPDIHVQLWGSAILKDLHRMSKDVQHEKDAYANHVKYSENLIADQRKCVQSAHHELVNWFQGDPPVTSGPPAAPVLLMPESSVTASVPVIASTSTAMQPAGQYGQFY
binds: all assays above
